These are yes or no findings as the source states them, for the method shown. Some binding calls cover weakened binding; strength is not graded here. Where a sequence is shown, tags or fusion partners need not be part of it.
Target: human pi class glutathione S-transferase of subunit type 1 (hGSTP1), with GS-PEITC bound (human), P09211
Assay: crystal structure; hGSTP1 (21.1 mg/ml) mixed with GSH and PEITC, 6 h at 4°C; hanging drop, 20% PEG-8000, 0.2 M Ca(OAc)2, 0.1 M MES pH 6.0; 1.95 Å, space group C2; both purified
Settings: remark: other sources report otherwise

B1: human pi class glutathione S-transferase of subunit type 1 (hGSTP1), with GS-PEITC bound, P09211 1-210 (enzyme)
chain: MPPYTVVYFPVRGRCAALRMLLADQGQSWKEEVVTVETWQEGSLKASCLYGQLPKFQDGDLTLYQSNTILRHLGRTLGLYGKDQQEAALVDMVNDGVEDLRCKYISLIYTNYEAGKDDYVKALPGQLKPFETLLSQNQGGKTFIVGDQISFADYNLLDLLLIHEVLAPGCLDAFPLLSAYVGRLSARPKLKAFLASPEYVNLPINGNGKQ
Which binding does the source give for B1 here?
The binding was “binds”.

Source: paper PMC5042466
